# Data reported in PMC5805373.
# Protein sequences, listed by entry. Tags and fused reporters are not part of them.
# UniProt P23813: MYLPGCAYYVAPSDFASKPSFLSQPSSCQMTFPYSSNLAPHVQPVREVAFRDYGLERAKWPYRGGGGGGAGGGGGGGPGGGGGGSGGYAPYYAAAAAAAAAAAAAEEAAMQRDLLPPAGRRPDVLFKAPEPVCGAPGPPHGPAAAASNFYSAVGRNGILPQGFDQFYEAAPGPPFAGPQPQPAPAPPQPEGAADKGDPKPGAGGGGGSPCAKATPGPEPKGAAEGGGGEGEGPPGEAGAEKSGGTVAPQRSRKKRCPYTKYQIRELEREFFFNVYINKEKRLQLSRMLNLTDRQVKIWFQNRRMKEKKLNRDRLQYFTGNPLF
# UniProt P22561: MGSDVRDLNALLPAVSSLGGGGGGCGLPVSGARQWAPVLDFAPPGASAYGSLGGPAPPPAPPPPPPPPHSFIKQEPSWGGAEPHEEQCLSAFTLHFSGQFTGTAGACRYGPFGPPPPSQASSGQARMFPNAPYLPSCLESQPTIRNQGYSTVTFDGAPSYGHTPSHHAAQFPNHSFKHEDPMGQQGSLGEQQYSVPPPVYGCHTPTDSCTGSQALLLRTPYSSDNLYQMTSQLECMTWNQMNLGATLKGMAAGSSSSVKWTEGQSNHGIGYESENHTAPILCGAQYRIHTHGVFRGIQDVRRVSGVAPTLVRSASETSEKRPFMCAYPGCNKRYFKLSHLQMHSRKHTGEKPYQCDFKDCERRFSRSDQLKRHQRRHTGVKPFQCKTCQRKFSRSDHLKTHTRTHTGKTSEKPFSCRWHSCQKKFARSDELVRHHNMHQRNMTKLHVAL
# Results are given in words; binding and its absence hold for the method and conditions named. In cells and extracts the contact can be indirect. Some entries that bind do so weakly or less than the wild type.
# T1: Six2 (mouse (endogenous in E16.5 kidney)) (UniProt Q62232)
# T1 sequence: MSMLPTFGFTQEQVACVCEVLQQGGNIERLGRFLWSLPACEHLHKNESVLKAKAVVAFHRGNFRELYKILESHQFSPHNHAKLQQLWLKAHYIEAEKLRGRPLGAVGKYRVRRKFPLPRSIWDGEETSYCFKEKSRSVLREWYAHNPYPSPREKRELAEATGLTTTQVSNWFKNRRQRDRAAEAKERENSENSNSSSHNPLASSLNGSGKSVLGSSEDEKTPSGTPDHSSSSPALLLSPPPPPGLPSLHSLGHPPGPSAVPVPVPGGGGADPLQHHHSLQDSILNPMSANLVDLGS
# B1: Sall1 (protein, UniProt Q9ER74 1-1322)
# chain: MSRRKQAKPQHFQSDPEVASLPRRDGDTEKGQPSRPTKSKDAHVCGRCCAEFFELSDLLLHKKSCTKNQLVLIVNESPASPAKTFPPGPSLNDPDDQMKDAANKADQEDCSDLSEPKGLDREESMEVEVPVATTTTTTTGGSGGSGGSTLSGVTNITTPSCHSGCSSGTSAITTSLPQLGDLTTLGNFSVINSNVIIENLQSTKVAVAQFSQEARCGGASGGKLLISTLMEQLLALQQQQIHQLQLIEQIRHQILLLASQSADLPAAPSIPSQGTLRTSANPLTTLSSHLSQQLAVAAGLAQSLASQSANISGVKQLPHVQLPQSSSGTSIVPPSGGTSPNMSIVTAAVPTPSSEKVASNAGASHVSSPAVSASSSPAFAISSLLSPESNPLLPQPTPANAVFPTPLPNIATTAEDLNSLSALAQQRKSKPPNVTAFEAKSTSDEAFFKHKCRFCAKVFGSDSALQIHLRSHTGERPFKCNICGNRFSTKGNLKVHFQRHKEKYPHIQMNPYPVPEHLDNVPTSTGIPYGMSIPSEKPVTSWLDTKPVLPTLTTSVGLPLPPTLPSLTPFIKTEEPAPIPISHSAASPQGSVKSDSGAPDLATRNPSGVPEEVEGSAVPPFGGKGEESNMASSAVPTAGNSTLNSPVADGGPGGTTFTNPLLPLMSEQFKAKFPFGGLLDSAQASETSKLQQLVENIDKKATDPNECIICHRVLSCQSALKMHYRTHTGERPFKCKICGRAFTTKGNLKTHYSVHRAMPPLRVQHSCPICQKKFTNAVVLQQHIRMHMGGQIPNTPVPDNYPESMESDTGSFDEKNFDDLDNFSDENMEECPEGSIPDTPKSADASQDSLSSSPLPLEMSSIAALENQMKMINAGLAEQLQASLKSVENGSMEGDVLTNDSSSVGGDMESQSAGSPAISESTSSMQALSPSNSTQEFHKSPGMEEKPQRVGPGEFANGLSPTPVNGGALDLTSSHAEKIIKEDSLGILFPFRDRGKFKNTACDICGKTFACQSALDIHYRSHTKERPFICTVCNRGFSTKGNLKQHMLTHQMRDLPSQLFEPSSNLGPNQNSAVIPANSLSSLIKTEVNGFVHVSPQDSKDAPTSHVPQGPLSSSATSPVLLPALPRRTPKQHYCNTCGKTFSSSSALQIHERTHTGEKPFACTICGRAFTTKGNLKVHMGTHMWNSTPARRGRRLSVDGPMTFLGGNPVKFPEMFQKDLAARSGSGDPSSFWNQYTAALSNGLAMKANEISVIQNGGIPPIPGSLGSGSSPISGLTGNVEKLGNSEPSAPLAGLEKMASSENGTNFRFTRFVEDSKEIVTS
# Biological target: T1, Six2 (mouse (endogenous in E16.5 kidney))
# Experiment: co-IP; Six2 antibody (or normal rabbit IgG) crosslinked to Dynabeads Protein G; nuclear extracts of E16.5 whole mouse kidneys incubated overnight with beads at 4°C; washed 5x with TBS+0.1% Triton X-100; eluted with 0.1M Glycine-HCl, pH 2.9; Western blot
row,binding,Molecule
1,binds,Hoxd11 (from UniProt P23813 1-323)
2,binds,Wt1 (from UniProt P22561 1-449)
3,no binding,B1
